Results deposited as PubChem BioAssay AID652243 (Drosophila RNAi Screening Center, 2013)
Assay: 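Knock-downs that decrease or increase androgen receptor reporter signal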 (primary screen). Cells: Drosophila S2R+ cells. Knock-down reagent: long dsRNA against Drosophila genes. Duration: 72 h (48 h, then 24 h hormone). Treatment: synthetic androgen R1881 at 10 nM for 24 h. Measured: 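Firefly light from an androgen-responsive reporter and Renilla control light per well, raw and unnormalised, for each of two replicates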. Reading the numbers: firefly reporter light: higher = more light from androgen-responsive reporter; Renilla control light: higher = more constitutive control signal (cell number, transfection). Active means: 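Hit when the log firefly-to-Renilla ratio dropped or increased by a fixed fold versus the mean of GFP or LacZ controls across duplicate plates; lowering cut given as 1.5 and as 3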. Meaning of the calls: active = hit: reporter lowered or raised; inactive = no hit.
The deposit covers about 24,000 reagents; below is an unselected part of those that have a named target and a result. Of all reagents, 246 (1%) got an active call. 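Plates not normalised; calls are printed but the firefly/Renilla ratio behind them is not deposited; fold cut for lowering reported inconsistently.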 Raw values are not corrected between plates. The numbers tell different reagents against one gene apart. Not stated in the record: the amount of reagent.

mRpL1 | firefly reporter light, replicate 1: 733; firefly reporter light, replicate 2: 621; outcome: inactive
CG32100 #1 | firefly reporter light, replicate 1: 1.92e5; firefly reporter light, replicate 2: 1.94e5; Renilla control light, replicate 1: 2.19e6; Renilla control light, replicate 2: 2.22e6; outcome: inactive
CG32100 #2 | firefly reporter light, replicate 1: 3.28e5; firefly reporter light, replicate 2: 1.93e5; Renilla control light, replicate 1: 2.32e6; Renilla control light, replicate 2: 2.16e6; outcome: inactive
Nil #1 | firefly reporter light, replicate 1: 1.94e5; firefly reporter light, replicate 2: 2.45e5; Renilla control light, replicate 1: 3.34e6; Renilla control light, replicate 2: 3.43e6; outcome: inactive
Nil #2 | firefly reporter light, replicate 1: 7.08e5; firefly reporter light, replicate 2: 8.16e5; Renilla control light, replicate 1: 1.76e6; Renilla control light, replicate 2: 1.82e6; outcome: inactive
Nil #3 | outcome: inactive
CG18636 #1 | firefly reporter light, replicate 1: 1.47e5; firefly reporter light, replicate 2: 1.29e5; Renilla control light, replicate 1: 1.72e6; Renilla control light, replicate 2: 1.61e6; outcome: inactive
CG18636 #2 | firefly reporter light, replicate 1: 9.96e5; firefly reporter light, replicate 2: 1.33e6; Renilla control light, replicate 1: 1.02e6; Renilla control light, replicate 2: 6.93e5; outcome: inactive

Taken from above:
Entry for mRpL1 under “firefly reporter light, replicate 1”: 733
Result for CG32100 #2 under “Renilla control light, replicate 1”: 2.32e6
Entry of CG32100 #1 in “firefly reporter light, replicate 2”: 1.94e5

The results go on:
GC2 #1 | firefly reporter light, replicate 1: 2.63e5; firefly reporter light, replicate 2: 2.99e5; Renilla control light, replicate 1: 2.57e6; Renilla control light, replicate 2: 3.00e6; outcome: inactive
GC2 #2 | firefly reporter light, replicate 1: 3.10e5; firefly reporter light, replicate 2: 3.71e5; Renilla control light, replicate 1: 7.58e5; Renilla control light, replicate 2: 7.84e5; outcome: inactive
PIP82 #1 | firefly reporter light, replicate 1: 1.85e5; firefly reporter light, replicate 2: 2.00e5; Renilla control light, replicate 1: 1.99e6; Renilla control light, replicate 2: 1.82e6; outcome: inactive
PIP82 #2 | firefly reporter light, replicate 1: 4.86e5; firefly reporter light, replicate 2: 3.62e5; Renilla control light, replicate 1: 4.39e5; Renilla control light, replicate 2: 4.64e5; outcome: inactive
Syt1 #1 | firefly reporter light, replicate 1: 2.60e5; firefly reporter light, replicate 2: 98935; Renilla control light, replicate 1: 4.49e5; Renilla control light, replicate 2: 3.00e5; outcome: inactive
Syt1 #2 | firefly reporter light, replicate 1: 3.12e5; firefly reporter light, replicate 2: 2.81e5; Renilla control light, replicate 1: 1.44e6; Renilla control light, replicate 2: 1.20e6; outcome: active
Syt1 #3 | firefly reporter light, replicate 1: 2.30e5; firefly reporter light, replicate 2: 1.44e5; Renilla control light, replicate 1: 2.39e5; Renilla control light, replicate 2: 1.02e5; outcome: inactive
Syt1 #4 | firefly reporter light, replicate 1: 8.08e5; firefly reporter light, replicate 2: 8.72e5; Renilla control light, replicate 1: 3.07e6; Renilla control light, replicate 2: 2.21e6; outcome: inactive
Syt1 #5 | firefly reporter light, replicate 1: 7.03e5; firefly reporter light, replicate 2: 6.61e5; Renilla control light, replicate 1: 2.08e6; Renilla control light, replicate 2: 1.98e6; outcome: inactive
Syt1 #6 | firefly reporter light, replicate 1: 2.59e5; firefly reporter light, replicate 2: 3.14e5; Renilla control light, replicate 1: 8.93e5; Renilla control light, replicate 2: 8.91e5; outcome: inactive
Vps13D #1 | firefly reporter light, replicate 1: 2.07e5; firefly reporter light, replicate 2: 2.08e5; Renilla control light, replicate 1: 1.13e6; Renilla control light, replicate 2: 1.12e6; outcome: inactive
Vps13D #2 | firefly reporter light, replicate 1: 2.03e5; firefly reporter light, replicate 2: 2.11e5; Renilla control light, replicate 1: 1.54e6; Renilla control light, replicate 2: 1.21e6; outcome: inactive
Cdc27 #1 | firefly reporter light, replicate 1: 7.71e5; firefly reporter light, replicate 2: 8.02e5; Renilla control light, replicate 1: 1.41e6; Renilla control light, replicate 2: 1.14e6; outcome: inactive
Cdc27 #2 | firefly reporter light, replicate 1: 6.42e5; firefly reporter light, replicate 2: 8.20e5; Renilla control light, replicate 1: 9.63e5; Renilla control light, replicate 2: 8.28e5; outcome: inactive
Cdc27 #3 | firefly reporter light, replicate 1: 4.92e5; firefly reporter light, replicate 2: 5.54e5; Renilla control light, replicate 1: 1.24e6; Renilla control light, replicate 2: 1.47e6; outcome: inactive
